Test results taken from the supplement of paper PMC10849652.
Some of the results follow.

Chains of the proteins cited; added tags and fusions are not shown. Lines headed by an entry give the natural chain unless they say otherwise; changes in a name come on top.
UniProt O00567: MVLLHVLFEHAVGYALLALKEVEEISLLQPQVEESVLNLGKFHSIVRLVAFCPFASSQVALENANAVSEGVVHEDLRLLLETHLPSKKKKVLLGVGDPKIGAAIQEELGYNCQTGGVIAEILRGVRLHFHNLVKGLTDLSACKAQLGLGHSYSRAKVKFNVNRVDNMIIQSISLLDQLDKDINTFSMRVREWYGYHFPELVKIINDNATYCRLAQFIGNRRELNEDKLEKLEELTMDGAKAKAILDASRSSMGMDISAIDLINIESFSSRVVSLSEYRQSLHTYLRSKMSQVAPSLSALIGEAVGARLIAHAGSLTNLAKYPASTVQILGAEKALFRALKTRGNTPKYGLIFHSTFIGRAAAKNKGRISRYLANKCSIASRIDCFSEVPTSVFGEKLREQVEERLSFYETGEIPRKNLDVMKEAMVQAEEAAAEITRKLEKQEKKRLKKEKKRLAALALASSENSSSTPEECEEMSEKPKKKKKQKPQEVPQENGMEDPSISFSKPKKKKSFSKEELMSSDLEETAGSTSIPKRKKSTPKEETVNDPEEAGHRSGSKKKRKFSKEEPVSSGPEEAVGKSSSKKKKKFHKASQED
UniProt Q9Y2X3: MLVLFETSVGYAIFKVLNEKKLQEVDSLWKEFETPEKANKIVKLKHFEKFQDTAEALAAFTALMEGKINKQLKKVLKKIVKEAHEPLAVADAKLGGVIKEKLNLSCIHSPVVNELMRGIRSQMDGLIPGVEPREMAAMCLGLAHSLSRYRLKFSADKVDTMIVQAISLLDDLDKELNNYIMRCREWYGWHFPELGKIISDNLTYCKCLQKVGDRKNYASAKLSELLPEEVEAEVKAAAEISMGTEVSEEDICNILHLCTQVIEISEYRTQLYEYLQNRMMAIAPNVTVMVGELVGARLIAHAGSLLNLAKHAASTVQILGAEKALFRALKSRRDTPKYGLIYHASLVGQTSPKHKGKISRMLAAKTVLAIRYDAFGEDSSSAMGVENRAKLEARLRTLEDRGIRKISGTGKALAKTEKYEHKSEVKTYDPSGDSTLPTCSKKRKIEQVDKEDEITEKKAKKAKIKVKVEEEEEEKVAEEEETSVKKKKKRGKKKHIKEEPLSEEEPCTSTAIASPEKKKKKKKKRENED
UniProt Q92636: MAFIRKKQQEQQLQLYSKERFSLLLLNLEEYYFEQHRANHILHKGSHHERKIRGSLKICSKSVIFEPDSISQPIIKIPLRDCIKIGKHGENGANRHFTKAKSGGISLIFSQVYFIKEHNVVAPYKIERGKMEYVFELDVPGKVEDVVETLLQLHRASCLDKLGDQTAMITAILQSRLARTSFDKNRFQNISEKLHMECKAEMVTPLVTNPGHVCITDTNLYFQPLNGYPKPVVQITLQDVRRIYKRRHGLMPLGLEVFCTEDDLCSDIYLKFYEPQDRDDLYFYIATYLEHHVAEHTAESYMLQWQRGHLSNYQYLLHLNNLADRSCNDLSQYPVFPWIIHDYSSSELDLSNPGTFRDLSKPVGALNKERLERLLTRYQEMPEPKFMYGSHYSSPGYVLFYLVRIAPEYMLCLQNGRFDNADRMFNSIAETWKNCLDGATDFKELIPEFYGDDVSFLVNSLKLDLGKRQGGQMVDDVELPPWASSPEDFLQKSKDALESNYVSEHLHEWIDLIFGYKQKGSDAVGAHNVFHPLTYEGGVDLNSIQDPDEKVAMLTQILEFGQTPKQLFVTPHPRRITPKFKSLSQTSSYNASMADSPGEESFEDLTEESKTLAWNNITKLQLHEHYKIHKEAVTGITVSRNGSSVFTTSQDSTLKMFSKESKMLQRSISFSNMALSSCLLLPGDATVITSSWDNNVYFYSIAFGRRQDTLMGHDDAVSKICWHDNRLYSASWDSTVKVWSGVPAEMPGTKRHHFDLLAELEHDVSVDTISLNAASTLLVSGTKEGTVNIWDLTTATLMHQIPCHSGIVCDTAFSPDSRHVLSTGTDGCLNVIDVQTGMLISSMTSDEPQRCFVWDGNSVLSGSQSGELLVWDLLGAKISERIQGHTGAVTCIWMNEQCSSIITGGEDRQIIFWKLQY
UniProt Q96P11: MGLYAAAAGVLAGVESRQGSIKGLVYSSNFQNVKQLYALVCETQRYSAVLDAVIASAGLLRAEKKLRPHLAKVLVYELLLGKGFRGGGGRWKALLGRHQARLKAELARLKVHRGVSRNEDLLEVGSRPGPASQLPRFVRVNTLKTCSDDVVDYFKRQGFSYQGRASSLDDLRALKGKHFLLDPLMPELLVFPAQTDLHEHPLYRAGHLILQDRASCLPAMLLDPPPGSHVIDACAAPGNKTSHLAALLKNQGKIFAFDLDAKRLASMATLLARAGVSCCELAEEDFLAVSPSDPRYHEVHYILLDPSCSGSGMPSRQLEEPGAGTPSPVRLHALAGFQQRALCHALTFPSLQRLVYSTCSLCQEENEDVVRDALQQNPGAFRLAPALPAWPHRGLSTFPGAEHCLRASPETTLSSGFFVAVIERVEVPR
UniProt Q14978: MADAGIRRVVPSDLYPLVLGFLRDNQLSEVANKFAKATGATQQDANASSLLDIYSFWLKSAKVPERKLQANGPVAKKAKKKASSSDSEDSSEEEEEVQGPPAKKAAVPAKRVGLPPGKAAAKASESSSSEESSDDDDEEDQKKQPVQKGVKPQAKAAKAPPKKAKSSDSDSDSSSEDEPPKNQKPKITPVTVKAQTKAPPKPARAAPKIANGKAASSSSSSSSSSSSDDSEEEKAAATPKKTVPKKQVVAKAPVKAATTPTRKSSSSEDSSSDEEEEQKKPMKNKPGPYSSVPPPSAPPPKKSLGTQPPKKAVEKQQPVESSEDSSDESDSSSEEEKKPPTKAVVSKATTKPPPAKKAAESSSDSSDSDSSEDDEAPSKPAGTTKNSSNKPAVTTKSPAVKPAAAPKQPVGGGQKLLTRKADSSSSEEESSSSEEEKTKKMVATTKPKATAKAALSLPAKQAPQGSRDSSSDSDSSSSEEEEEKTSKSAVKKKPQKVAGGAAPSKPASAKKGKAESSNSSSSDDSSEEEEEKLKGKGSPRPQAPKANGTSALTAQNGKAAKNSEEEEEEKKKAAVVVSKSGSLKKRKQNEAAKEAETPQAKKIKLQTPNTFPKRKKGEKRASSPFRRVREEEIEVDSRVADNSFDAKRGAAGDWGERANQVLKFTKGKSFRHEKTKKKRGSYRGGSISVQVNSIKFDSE
UniProt Q15738: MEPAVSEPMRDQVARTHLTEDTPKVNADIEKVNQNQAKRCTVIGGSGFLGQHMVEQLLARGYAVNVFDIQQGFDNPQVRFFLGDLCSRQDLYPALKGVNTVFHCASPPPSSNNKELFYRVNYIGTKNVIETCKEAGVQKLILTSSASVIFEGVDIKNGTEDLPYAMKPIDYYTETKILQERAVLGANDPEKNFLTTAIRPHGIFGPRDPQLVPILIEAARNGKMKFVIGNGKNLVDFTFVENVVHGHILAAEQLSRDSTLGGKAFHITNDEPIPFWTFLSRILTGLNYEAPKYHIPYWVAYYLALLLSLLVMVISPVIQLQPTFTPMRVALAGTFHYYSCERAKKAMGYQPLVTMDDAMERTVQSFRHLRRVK
UniProt Q96MG7: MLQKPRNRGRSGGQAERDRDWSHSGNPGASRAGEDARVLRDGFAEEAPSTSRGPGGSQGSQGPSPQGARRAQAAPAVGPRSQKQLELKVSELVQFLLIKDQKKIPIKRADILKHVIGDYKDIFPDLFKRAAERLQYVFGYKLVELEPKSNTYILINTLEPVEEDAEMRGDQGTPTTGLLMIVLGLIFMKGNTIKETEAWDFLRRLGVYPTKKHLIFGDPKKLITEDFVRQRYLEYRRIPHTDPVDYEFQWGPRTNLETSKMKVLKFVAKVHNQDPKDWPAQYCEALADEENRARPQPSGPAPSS
UniProt Q8TEA1: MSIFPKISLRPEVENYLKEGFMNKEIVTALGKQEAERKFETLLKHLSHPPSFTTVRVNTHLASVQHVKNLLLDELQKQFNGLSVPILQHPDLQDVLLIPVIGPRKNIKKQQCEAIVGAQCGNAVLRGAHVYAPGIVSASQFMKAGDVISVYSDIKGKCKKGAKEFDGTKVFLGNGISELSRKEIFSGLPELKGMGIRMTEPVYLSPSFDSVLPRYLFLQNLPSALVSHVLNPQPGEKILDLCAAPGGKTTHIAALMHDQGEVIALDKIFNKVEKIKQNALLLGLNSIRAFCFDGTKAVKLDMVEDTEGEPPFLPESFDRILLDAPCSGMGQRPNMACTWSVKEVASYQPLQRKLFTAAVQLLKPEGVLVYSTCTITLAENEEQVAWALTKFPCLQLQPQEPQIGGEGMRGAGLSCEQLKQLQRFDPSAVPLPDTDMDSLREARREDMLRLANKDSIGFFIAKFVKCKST
UniProt Q96DE0: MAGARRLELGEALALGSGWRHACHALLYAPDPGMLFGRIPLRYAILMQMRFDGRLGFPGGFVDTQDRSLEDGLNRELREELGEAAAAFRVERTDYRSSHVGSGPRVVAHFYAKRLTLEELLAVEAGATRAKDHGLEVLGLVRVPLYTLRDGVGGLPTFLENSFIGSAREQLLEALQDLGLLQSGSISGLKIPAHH
UniProt P49757: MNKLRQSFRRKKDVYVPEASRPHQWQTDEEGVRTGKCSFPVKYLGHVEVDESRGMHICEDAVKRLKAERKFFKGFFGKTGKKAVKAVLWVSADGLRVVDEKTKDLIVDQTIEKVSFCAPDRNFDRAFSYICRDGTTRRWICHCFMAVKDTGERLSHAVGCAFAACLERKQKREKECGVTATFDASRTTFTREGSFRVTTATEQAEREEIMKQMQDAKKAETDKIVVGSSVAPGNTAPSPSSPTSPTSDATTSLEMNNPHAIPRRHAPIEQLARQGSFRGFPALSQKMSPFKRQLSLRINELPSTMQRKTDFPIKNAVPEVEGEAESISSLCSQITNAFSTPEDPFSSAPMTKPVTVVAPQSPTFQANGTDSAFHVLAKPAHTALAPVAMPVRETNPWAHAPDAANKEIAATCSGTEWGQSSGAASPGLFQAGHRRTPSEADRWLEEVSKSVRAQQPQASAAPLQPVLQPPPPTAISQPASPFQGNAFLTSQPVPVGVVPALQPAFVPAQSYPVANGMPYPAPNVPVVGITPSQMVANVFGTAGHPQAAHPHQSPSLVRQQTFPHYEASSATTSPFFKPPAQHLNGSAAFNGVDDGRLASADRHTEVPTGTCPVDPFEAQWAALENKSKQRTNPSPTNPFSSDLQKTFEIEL
UniProt Q9UNZ2: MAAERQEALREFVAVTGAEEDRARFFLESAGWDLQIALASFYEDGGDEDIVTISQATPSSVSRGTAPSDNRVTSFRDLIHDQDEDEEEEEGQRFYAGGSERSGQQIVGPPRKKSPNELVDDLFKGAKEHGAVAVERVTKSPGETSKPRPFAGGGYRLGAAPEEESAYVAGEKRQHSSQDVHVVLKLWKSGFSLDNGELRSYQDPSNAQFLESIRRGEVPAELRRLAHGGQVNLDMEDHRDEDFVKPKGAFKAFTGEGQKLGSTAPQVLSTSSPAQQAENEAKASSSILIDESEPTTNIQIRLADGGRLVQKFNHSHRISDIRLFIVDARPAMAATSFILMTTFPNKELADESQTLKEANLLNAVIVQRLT
UniProt Q8IVD9: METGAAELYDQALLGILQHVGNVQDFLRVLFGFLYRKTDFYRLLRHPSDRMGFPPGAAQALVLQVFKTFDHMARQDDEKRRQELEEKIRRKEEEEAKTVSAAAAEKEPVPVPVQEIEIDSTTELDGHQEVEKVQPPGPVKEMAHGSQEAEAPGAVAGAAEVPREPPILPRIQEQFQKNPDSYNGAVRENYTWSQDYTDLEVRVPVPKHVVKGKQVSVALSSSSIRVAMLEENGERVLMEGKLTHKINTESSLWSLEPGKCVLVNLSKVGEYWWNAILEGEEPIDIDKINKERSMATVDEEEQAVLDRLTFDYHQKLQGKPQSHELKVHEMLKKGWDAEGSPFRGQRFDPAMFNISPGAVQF
UniProt Q96MF7: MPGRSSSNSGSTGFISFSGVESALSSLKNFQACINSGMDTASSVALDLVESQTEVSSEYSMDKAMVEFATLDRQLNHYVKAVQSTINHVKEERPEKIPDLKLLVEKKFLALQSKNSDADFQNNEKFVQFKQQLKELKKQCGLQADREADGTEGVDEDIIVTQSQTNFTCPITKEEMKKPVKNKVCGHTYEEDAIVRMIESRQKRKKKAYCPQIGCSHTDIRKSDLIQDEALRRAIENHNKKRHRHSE
UniProt Q9Y314: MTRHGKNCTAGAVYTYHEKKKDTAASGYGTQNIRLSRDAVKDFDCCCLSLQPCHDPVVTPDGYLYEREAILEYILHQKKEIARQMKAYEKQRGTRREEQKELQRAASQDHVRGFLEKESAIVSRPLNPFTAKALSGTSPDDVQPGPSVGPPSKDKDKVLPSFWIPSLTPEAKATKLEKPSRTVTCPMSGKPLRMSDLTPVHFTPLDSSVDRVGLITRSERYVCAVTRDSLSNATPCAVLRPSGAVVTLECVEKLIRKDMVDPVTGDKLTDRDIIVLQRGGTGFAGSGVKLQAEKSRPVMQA

Compound: CS(=O)(=O)CCNCc1ccc(-c2ccc3ncnc(Nc4ccc(OCc5cccc(F)c5)c(Cl)c4)c3c2)o1 [lapatinib]
Test: log2 fold change, soluble protein after heating vs DMSO (PISA); higher = thermal stabilisation; K562 lysate, 10 uM; active = over 0.2 and 3.5 SD of the protein, either way, in both replicates (recomputed)
In short: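 The values are log-two fold changes in thermal stability compared with solvent controls and come from duplicates. They were obtained by TMTpro 16plex LC-MS/MS, with channel sums equalised, on the supernatant after 21,000xg for 90 min. That supernatant came from crude K562 extract at 1 mg/mL protein treated with 10 μM compound for 30 min, heated for 3 min across 48°C-58°C, pooled and brought to 0.5% NP-40 at 4°C.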

log2 fold change, inactive:
NMNAT1 (UniProt Q9HAN9) -0.035, NOP56 (UniProt O00567) -0.034, NOP58 (UniProt Q9Y2X3) 0.016, NSMAF (UniProt Q92636) 0.019, NME7 (UniProt Q9Y5B8) 0.031, NME3 (UniProt H3BPR2) -0.078, NSUN5 isoform 2 (UniProt Q96P11) 0.017, NOLC1 isoform 2 (UniProt Q14978) -0.015, NOP14 (UniProt P78316) -0.025, NSDHL (UniProt Q15738) 0.034, NUDT4 (UniProt Q9NZJ9) -0.01, NTMT1 (UniProt S4R338) 0.082, NSMCE3 (UniProt Q96MG7) 0.033, NSUN6 (UniProt Q8TEA1) 0.044, NUDT16 (UniProt Q96DE0) -0.002, NUMB (UniProt P49757) 0.033, NSDHL (UniProt C9JDR0) 0.168, NSFL1C isoform 5 (UniProt Q9UNZ2) 0.021, NUDCD3 (UniProt Q8IVD9) -0.013, NSMCE2 (UniProt Q96MF7) -0.003, NME6 (UniProt O75414) -0.02, NOSIP (UniProt Q9Y314) -0.03, NT5C3A (UniProt Q9H0P0) 0.002
